Data published in paper PMC13059783.
Results are given in words; binding and its absence hold for the method and conditions named. In cells and extracts the contact can be indirect. Some entries that bind do so weakly or less than the wild type.

By UniProt entry, the sequences of proteins in these tests, tags left out.
UniProt Q14247: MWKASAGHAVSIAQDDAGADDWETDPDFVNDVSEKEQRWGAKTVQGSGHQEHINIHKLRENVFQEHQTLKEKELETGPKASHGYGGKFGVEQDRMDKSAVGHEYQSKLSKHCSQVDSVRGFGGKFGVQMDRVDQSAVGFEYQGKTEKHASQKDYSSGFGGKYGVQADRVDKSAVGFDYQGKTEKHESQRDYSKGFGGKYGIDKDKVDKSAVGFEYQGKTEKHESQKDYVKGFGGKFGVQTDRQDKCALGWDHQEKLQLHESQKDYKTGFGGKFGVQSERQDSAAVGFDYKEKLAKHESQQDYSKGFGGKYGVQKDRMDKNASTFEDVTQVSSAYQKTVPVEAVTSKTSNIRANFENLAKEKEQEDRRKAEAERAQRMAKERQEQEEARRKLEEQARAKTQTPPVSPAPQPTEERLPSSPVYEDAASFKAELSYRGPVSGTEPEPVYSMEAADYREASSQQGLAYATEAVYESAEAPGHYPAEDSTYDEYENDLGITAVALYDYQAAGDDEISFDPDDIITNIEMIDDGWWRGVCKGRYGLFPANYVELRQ
UniProt P23528: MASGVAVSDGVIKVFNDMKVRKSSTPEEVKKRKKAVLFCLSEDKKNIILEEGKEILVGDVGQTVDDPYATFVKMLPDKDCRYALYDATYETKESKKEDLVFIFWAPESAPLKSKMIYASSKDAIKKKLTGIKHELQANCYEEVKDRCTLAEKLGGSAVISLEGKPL

Target: Cortactin (UniProt Q14247)
Assay: co-IP; exogenous co-immunoprecipitation in HEK-293T cells (legend: T24 cells); control cells and cells with TCF7L2 knocked down (binding attenuated after knock-down); bait not told

binding: binds
Substance: Cofilin1 (from UniProt P23528 1-166)
